Data: patent US20220326125A1, “BIOLOGICAL TISSUE STAINING REAGENT, BIOLOGICAL TISSUE STAINING KIT AND BIOLOGICAL TISSUE STAINING METHOD” (CUBICStars, Inc., priority 2019, published 2022)

Test system: defatted mouse cerebral hemisphere
Test: 3D nuclear staining at different salt concentrations
Conditions: H-S and CUBIC-1A at the higher NaCl concentration (500 mM vs 5 or 25 mM); 32° C., 24 hours
Experimental: A defatted cerebral hemisphere cut out from the whole brain was provided as a sample.
For investigating the effect of the NaCl concentration, the NaCl concentration in CUBIC-1A was set to 25 mM or 500 mM, and NaCl was added to H-S to 5 mM or 500 mM. The sample was washed with PBS, and then soaked in PBS containing 40% by weight sucrose. From each sample obtained, a frozen section was prepared. For post-2D staining, the frozen section was soaked in PBS containing DAPI (1:500; manufactured by Dojindo Molecular Technologies; #D0523) at room temperature for 30 minutes.

With `CC[N+](C)(CC)CCC[n+]1c(-c2ccccc2)c2cc(N)ccc2c2ccc(N)cc21.[I-].[I-]` [PI, propidium iodide, reference compound] the “uniformity of nuclear staining images” value was “more uniform nuclear staining images”.
SYTO 16 was tested, and the “uniformity of nuclear staining images” value was “more uniform nuclear staining images”.
